## Screening data

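Genome-wide siRNA knockdown in TC32 Ewing sarcoma cells, comparing luciferase light from an NR0B1-promoter reporter with a CMV-promoter reporter 48 hours after transfection. Each siRNA was applied at 20 nM. A z-score of the log NR0B1-over-CMV signal, less the median of siRNAs with the same seed; more negative means a stronger specific loss of the NR0B1 reporter.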

The strongest results of the screen are mostly left out here. Sequences are the guide (antisense) strand, without overhang.

| Sequence | target gene | seed-corrected z-score |
|---|---|---|
| `UGUACUUCCAUGUUGCGGC` | MAPK8IP3 | -0.6969 |
| `AAAGUGCAAAGAUGUAGAC` | ADGRG3 | 0.2436 |
| `AAUCGAACAGGAGACAAUG` | PEAK1 | -0.1162 |
| `UUCCGGUCCACGUUGAGGU` | SCRIB | -0.114 |
| `AAACCGCAAAGAUAUAUCC` | TOPBP1 | -0.1869 |
| `UGAUAACAUACUGAUAGCC` | DGCR2 | 0.3894 |
| `AUAGGGCUUAUCGGAGGUG` | ZIC2 | -0.09224 |
| `UGUCCAGCAUGAUAAACUC` | CHST6 | 0.5135 |
| `AAAUAGGUUCCCAAUCUGC` | SLC43A3 | 0.3767 |
| `AUCGUAACUUGCUUUCUUG` | BROX | 0.3922 |
| `AGAGCUGUAAAUAUCUUCU` | HSD17B11 | -0.3694 |
| `UUCUCCGUCACAUUGAUCC` | EMILIN2 | 1.458 |
| `UCAUAAUCUACUUGGAUGG` | DEPDC5 | 0.0078 |
| `UUGCGGAUAAAUUCGAUGC` | ZKSCAN2 | -1.323 |
| `UAUUAGAUCACCGAGGUCU` | TTI2 | 0.3513 |
| `UACUUUUGUAGCUCCUCUG` | MX1 | 1.205 |
| `UCUGGAACUGAUCAUGACC` | FMO3 | 0.06169 |
| `ACAGCUGAGAACAUGAUGC` | SLC2A6 | 0.5545 |
| `UACGUUUUUAAUAGCCGCC` | MYOM1 | 0.04033 |
| `AACUGAUCAGGAUCCAGAG` | SLC46A2 | 0.9056 |
| `UCAGCUUCCUUAAACUUCC` | MEAF6 | -0.4791 |
| `UAUAAAUUAGACUCUGCUG` | FSTL3 | 0.1476 |
| `UUCGUCGACAGAGCUCAGG` | PRR23A | -0.3291 |
| `UGAGGUUUAUCAGCUAGAG` | TRIM23 | -0.7847 |
| `ACAGGAACUGGUAGUGGGC` | DUSP23 | -0.5609 |
| `UCUGCGACCAUCCUGAAGU` | SP140 | -0.1628 |
| `UUCUACACCGCAUUCAAAC` | ATP8B5P | -0.3275 |
| `AAAGAUUAAGGGAUAAGUG` | PIGB | -0.00902 |
| `UUUGCUCAUGAUAAGUUCC` | SIKE1 | -0.00328 |
| `AAAGUCACCAGGGAACACG` | UBL4B | 0.2434 |
| `AAUUUGACAAUUGCAUCUG` | TKTL2 | 0.1212 |
| `UUCCGACUGAACUCUUUCC` | ZNF671 | -0.7286 |
| `UGAUUUCCAAGGGCAUCUC` | C2orf42 | -1.248 |
| `UUCCCUGCUUGGUUGAUGU` | KRTAP2-1 | -0.04516 |
| `UCCAGGACUAGCACUGAGC` | MSLNL | -0.6927 |
| `UCCAGUUCCACAAACAGUC` | SAYSD1 | 0.3158 |
| `UGAGUUUCAGUUGUGAUCG` | PDE8A | -1.092 |
| `CACGGACUGAAGGCUGUUG` | GP9 | -0.992 |
| `UAAAGUCUUGGGACCACUC` | RIC3 | 0.01964 |
| `AUCGUUUUAUCAGUCCUUC` | GANC | 0.4959 |
| `AAGUAUAACAGUUUCAUAG` | SSPN | 0.4195 |
| `UGACGCAUAAUUCUCAAUG` | KRTDAP | -0.3171 |
| `UUUGCAUUCACUGUCGAGG` | ABCF3 | -0.1403 |
| `UCGUGUACUUGGAAUCUCC` | BEND5 | 2.285 |
| `UUUCCGUUUCCGCUAACUG` | NDUFAF5 | -0.0656 |
| `UAUACUACCUCCAUCGGUC` | GLI3 | -0.1388 |
| `AAUCAUUACAUAGUCCUGG` | SLC47A2 | -0.3268 |
| `UUCUUUGUGACAUCAAGGA` | BDH2 | 0.7336 |

6 of the entries, repeated:

- UUCUCCGUCACAUUGAUCC against EMILIN2 | seed-corrected z-score 1.458
- UCAGCUUCCUUAAACUUCC against MEAF6 | seed-corrected z-score -0.4791
- UUCCCUGCUUGGUUGAUGU against KRTAP2-1 | seed-corrected z-score -0.04516
- UCGUGUACUUGGAAUCUCC against BEND5 | seed-corrected z-score 2.285
- UUUGCAUUCACUGUCGAGG against ABCF3 | seed-corrected z-score -0.1403
- UGACGCAUAAUUCUCAAUG against KRTDAP | seed-corrected z-score -0.3171

From PubChem BioAssay record AID1159506 (NCATS, 2015).